Data published in paper PMC5512577, “PDE6δ-mediated sorting of INPP5E into the cilium is determined by cargo-carrier affinity” (Nature Communications, 2016).
No constants are given. Whether binding was seen depends on the method and setting. Some entries that bind do so weakly or less than the wild type.

By UniProt entry, the sequences of proteins in these tests, tags left out.
UniProt Q9D0J4: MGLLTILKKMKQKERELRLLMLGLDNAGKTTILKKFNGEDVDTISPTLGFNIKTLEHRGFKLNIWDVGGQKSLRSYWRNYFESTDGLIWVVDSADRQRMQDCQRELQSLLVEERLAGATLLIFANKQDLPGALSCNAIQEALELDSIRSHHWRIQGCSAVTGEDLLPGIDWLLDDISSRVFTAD
UniProt Q9WUL7: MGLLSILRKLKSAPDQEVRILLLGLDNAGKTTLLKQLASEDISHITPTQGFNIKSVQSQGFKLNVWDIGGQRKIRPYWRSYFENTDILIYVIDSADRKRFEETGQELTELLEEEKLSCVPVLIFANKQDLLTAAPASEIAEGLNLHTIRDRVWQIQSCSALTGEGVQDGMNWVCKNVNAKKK

Target: GST-PDE6δ (UniProt O43924)
Assay: pull-down; release step of the GST pull-down: 20 μM Arl2 or Arl3 (GppNHp) added to GST-PDE6δ beads loaded from IMCD3 lysate, 1 h at 4 °C; read by loss of GFP-INPP5E; both purified

Row | binding | Substance
1 | binds | full-length Arl2, C-terminal histidine-tagged, bound to GppNHp or mantGppNHp (from UniProt Q9D0J4 1-184)
2 | binds | full-length Arl3, C-terminal histidine-tagged, bound to GppNHp or mantGppNHp (from UniProt Q9WUL7 1-182)
